Legend:
ES cells = conditions: PD407824 and BMP in combination; cited from earlier work
[1] = system: Human ES cells genetically engineered so as to have Rx::Venus reporter gene (derived from KhES-1 strain); assay: Differentiation of human ES cell aggregates into retinal tissue in suspension culture (SFEBq), microscope observation of aggregated masses; assay type: cell-based; conditions: for proportion of cell aggregates produced having an almost truly spherical shape: PD407824 in combination with 0.15 nM BMP4
Protocol: Human ES cells genetically engineered so as to have Rx::Venus reporter gene (derived from KhES-1 strain (Non Patent Literature 3)) were cultured in the absence of a feeder cell (under feeder-free conditions) in accordance with the method described in “Scientific Reports, 4, 3594 (2014)”. As a culture medium for use in culturing in the absence of a feeder cell (feeder-free medium), StemFit medium (trade name: AK03N, manufactured by Ajinomoto Co., Inc.) was used, and as a scaffold as an alternative to feeder cells, Laminin511-E8 (trade name, manufactured by Nippi, Inc.) was used.
Specific operation of maintenance culture for human ES cells was performed as follows: First, human ES cells that reached sub-confluency (state where about 60% of the culture area was covered by cells) were washed with PBS and separated into single cells by use of TrypLE Select (trade name, manufactured by Life Technologies). Then, the separated human ES single cells were seeded in plastic culture dishes coated with Laminin 511-E8 and cultured under feeder-free conditions in StemFit medium in the presence of Y-27632 (ROCK inhibitor, 10 μM). When 6-well plates (for cell culture, culture area: 9.4 cm^2, manufactured by AGC TECHNO GLASS., LTD) were used as the plastic culture dishes, the number of separated human ES single cells to be seeded was specified as 0.4 to 1.2×10^4 cells per well. One day after seeding, the medium was exchanged with StemFit medium not containing Y-27632. Thereafter, the medium was exchanged with Y-27632-free StemFit medium once every 1 to 2 days. Thereafter, the cells were cultured under feeder-free conditions until 1 day before reaching sub-confluency. The human ES cells the 1 day before the sub-confluency were cultured for 1 day (preconditioning treatment) under feeder-free conditions in the presence of SB431542 (TGFβ signaling pathway inhibitor, 5 μM) and SAG (Shh signaling pathway agonist, 300 nM).
The human ES cells were washed with PBS, then treated for cell dispersions using TrypLE Select, and further separated into single cells by pipetting. Thereafter, the separated human ES single cells were suspended in 100 μL of a serum-free medium such that the density of cells per well of a non-cell adhesive 96-well culture plate (trade name: PrimeSurface, 96-well V-bottom plate, manufactured by Sumitomo Bakelite Co., Ltd.) was 1.2×10^4 cells, and subjected to suspension culture in the conditions of 37° C.and 5% CO2. The serum-free medium (gfCDM+KSR) used herein is a serum-free medium prepared by adding 10% KSR and 450 μM 1-monothioglycerol and 1× Chemically defined lipid concentrate to a mixture of culture fluids containing F-12 medium and IMDM medium in a ratio of 1:1.
At the initiation time of the suspension culture (Day 0 from initiation of the suspension culture), Y-27632 (ROCK inhibitor, final concentration: 10 μM) were added to the serum-free medium. On Day 3 from initiation of the suspension culture, 50 L of a culture medium not containing Y-27632 and containing human recombinant BMP4 (trade name: Recombinant Human BMP-4, manufactured by R&D) was added in such a manner that the final concentration of the exogeneous human recombinant BMP4 reached 0.15 nM or 1.5 nM. In addition, PD407824 (Tocris Bioscience) was added simultaneously with BMP4 at a final concentration of 1 μM.
Further, the aggregated masses (cell aggregates) of Day 14 from initiation of the suspension culture were transferred to a 90-mm low adhesive plate (manufactured by Sumitomo Bakelite Co., Ltd.) and cultured for 3 days in the conditions of 37° C. and 5% CO2 in a serum-free medium (DMEM/F12 medium supplemented with 1% N2 Supplement) containing a Wnt signaling pathway agonist (CHIR99021, 3 M) and a FGF signaling pathway inhibitor (SU5402, 5 μM). The aforementioned method was performed also in subsequent Examples in the same manner, unless otherwise specified.

[2] = system: Human ES cells genetically engineered so as to have Rx::Venus reporter gene (derived from KhES-1 strain); assay: Immunostaining of frozen sections of aggregated masses, confocal fluorescence microscope; assay type: cell-based; conditions: 1 μM PD407824 with 1.5 nM BMP4
Description: The aggregated masses on Day 25 from initiation of the suspension culture were fixed with 4% PFA, subjected to replacement with 20% sucrose, and then frozen and sectioned. These frozen sections were subjected to immunostaining with DAPI, an anti-CHX10 antibody (trade name: Anti CHX10 Antibody, manufactured by EX alpha), an anti-MITF antibody (manufactured by EX alpha), an anti-collagen IV (manufactured by Abcam plc.) and an anti-Zo-1 antibody (Invitrogen). As necessary, antigen activation treatment (manufactured by Thermo Fisher Scientific) was performed with a microwave. […] In addition, in the outer layer of RPE cells, a Zo-1-positive apical surface was formed in the outermost surface, and a collagen-positive basal surface was formed in the inside thereof. […] Moreover, many characteristic ciliary marginal zone (CMZ) structures (places indicated by “[” in FIG. 7, about 3 to 10 per aggregate) in a boundary part between the layer of MITF-positive RPE and the layer of a Chx10-positive neural retina were found through observation (FIG. 7). Aggregated masses produced as in Example 1 by culturing under conditions involving addition of 1 μM PD407824 in addition to 1.5 nM BMP4 for 60 days from initiation of the suspension culture were fixed with 4% PFA, subjected to replacement with 20% sucrose, and then frozen and sectioned. These frozen sections were subjected to antigen activation treatment with a microwave, followed by immunostaining with DAPI, an anti-CHX10 antibody (trade name: Anti CHX10 Antibody, manufactured by EX alpha) and an anti-CRX antibody (manufactured by Takara Bio Inc.).

[3] = 1 μM PD407824 with 1.5 nM BMP4 added Day 3, Day 21, FIG. 5
[4] = PD407824 used in combination (1 μM PD407824 with 0.15 nM BMP4)

O=C1NC(=O)c2c1c(-c1ccccc1)cc1[nH]c3ccc(O)cc3c21 [PD407824]
effect on differentiation of ES cells into mesodermal cells (ES cells): enhance the differentiation of ES cells into mesodermal cells | production efficiency for Rx::Venus-positive NR ([1]; 1 μM PD407824 in combination, 0.15 nM BMP4 compared with 1.5 nM BMP4, Day 17): higher production efficiency for Rx::Venus-positive NR was obtained when 0.15 nM BMP4 was added than when 1.5 nM BMP4 was added | production of retinal tissue ([1]; 1 μM PD407824 with 0.15 nM BMP4 (about 1/10 of normal) added Day 3, observed Day 17, FIG. 1): retinal tissue can be produced | Rx::Venus-negative (non-target) cell masses ([1]; 1 μM PD407824 with 0.15 nM BMP4 added Day 3, Day 15 or 36, FIGS. 2 to 4): Rx::Venus-negative masses were significantly reduced to result in high efficiency of differentiation into Rx::Venus-positive NR | structure of the aggregate produced ([1]; 1 μM PD407824 with 1.5 nM BMP4, Day 17, FIG. 1): a sphere-like cell aggregate comprising a multilayer structure in which a layer of retinal pigment epithelial (RPE) cells was localized in the outside and a layer of neural retinal tissue (NR) was localized in the inside was produced | shape of the aggregated mass [1, 3]: favorable shape (a shape with a plurality of overlapping true spheres (e.g., cloverleaf)) | structure of the aggregate produced [1, 3]: a sphere-like cell aggregate comprising a multilayer structure in which a layer of retinal pigment epithelial (RPE) cells was localized in the outside and a layer of neural retinal tissue (NR) was localized in the inside was produced | formation of Rx::Venus-positive neural retina ([1]; 1 μM PD with 0.15 nM BMP4 added Day 3, Day 9, FIG. 8): an Rx::Venus-positive neural retina was formed through differentiation in the whole region of an aggregated mass | structure of the aggregate produced ([1]; 1 μM or 3 μM PD407824 with 0.5 nM or 1.5 nM BMP4 added Day 3, Day 9, FIG. 8): a sphere-like cell aggregate comprising a multilayer structure of an outer layer of RPE cells and an inner layer of neural retinal tissue including many CMZs and having polarity was produced | proportion of cell aggregates produced having an almost truly spherical shape ([1]; 95/96): about 99% | proportion of cell aggregates produced having an almost truly spherical shape ([1]; case with failure in aggregated mass formation excluded): 100% | wells with a cell aggregate having an almost truly spherical shape, among 96 wells [1, 4]: 95 wells | wells with a cell aggregate with failure in aggregated mass formation, among 96 wells [1, 4]: one | Chx10 staining (neural retinal progenitor cells), localisation ([2]; Day 25, FIG. 6): Chx 10-positive neural retinal progenitor cells were contained in the inner cell layer | MITF staining (RPE cells), localisation ([2]; Day 25, FIG. 6): MITF-positive RPE cells were contained in the outermost cell layer of each aggregated mass | apical-basal polarity (Zo-1, collagen IV staining) ([2]; Day 25, FIG. 6): an aggregated mass with apical-and-basal polarity was formed | Crx staining (photoreceptor cells), localisation ([2]; Day 60, FIG. 9): Crx-positive photoreceptor cells were localized in the side close to RPE cells in the inner layer structure | RPE cells and Chx10-positive retinal progenitor cells, localisation ([2]; Day 60, FIG. 9): RPE cells having black pigments were contained in the outermost cell layer of an aggregated mass and Chx10-positive retinal progenitor cells inside of which a layer structure was formed were contained
